{"sequences": {"note": "Protein sequences, listed by entry. Tags and fused reporters are not part of them. Residues count along the entry.", "UniProt P60615, residues 22-95": "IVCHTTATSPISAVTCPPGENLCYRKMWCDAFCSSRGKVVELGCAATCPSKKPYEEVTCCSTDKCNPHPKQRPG", "UniProt P04756, residues 21-230": "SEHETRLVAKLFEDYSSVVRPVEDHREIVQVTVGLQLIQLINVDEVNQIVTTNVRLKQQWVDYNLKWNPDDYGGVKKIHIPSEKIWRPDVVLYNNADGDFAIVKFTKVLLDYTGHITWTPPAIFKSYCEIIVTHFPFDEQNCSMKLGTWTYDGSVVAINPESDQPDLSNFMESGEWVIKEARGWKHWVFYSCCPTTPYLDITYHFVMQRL"}, "source": "paper PMC8967655", "biological_target": "α-bungarotoxin, biotin conjugate (UniProt P60615)", "assay": "pull-down; both purified", "note": "No constants are given. Whether binding was seen depends on the method and setting. Some results given as binding are weak or reduced against the parent protein; the word gives no strength."}
{"substance": "GST-tagged nAChR α1 subunit ectodomain (amino acids 21-230) (from UniProt P04756 21-230) (domain or fragment)", "values": [{"measurement": "binding", "result": "binds"}]}
